Experimental data: paper PMC5351981
Results are given in words; binding and its absence hold for the method and conditions named. Binding calls can cover weak binding; strength is not graded here. For some assays here: Tags and fused reporters may be left off the sequences shown. For some assays here: In cells and extracts the contact can be indirect.

Protein sequences, listed by entry. Tags and fused reporters are not part of them. Lines headed by an entry give the natural chain unless they say otherwise; changes in a name come on top.
UniProt Q08605: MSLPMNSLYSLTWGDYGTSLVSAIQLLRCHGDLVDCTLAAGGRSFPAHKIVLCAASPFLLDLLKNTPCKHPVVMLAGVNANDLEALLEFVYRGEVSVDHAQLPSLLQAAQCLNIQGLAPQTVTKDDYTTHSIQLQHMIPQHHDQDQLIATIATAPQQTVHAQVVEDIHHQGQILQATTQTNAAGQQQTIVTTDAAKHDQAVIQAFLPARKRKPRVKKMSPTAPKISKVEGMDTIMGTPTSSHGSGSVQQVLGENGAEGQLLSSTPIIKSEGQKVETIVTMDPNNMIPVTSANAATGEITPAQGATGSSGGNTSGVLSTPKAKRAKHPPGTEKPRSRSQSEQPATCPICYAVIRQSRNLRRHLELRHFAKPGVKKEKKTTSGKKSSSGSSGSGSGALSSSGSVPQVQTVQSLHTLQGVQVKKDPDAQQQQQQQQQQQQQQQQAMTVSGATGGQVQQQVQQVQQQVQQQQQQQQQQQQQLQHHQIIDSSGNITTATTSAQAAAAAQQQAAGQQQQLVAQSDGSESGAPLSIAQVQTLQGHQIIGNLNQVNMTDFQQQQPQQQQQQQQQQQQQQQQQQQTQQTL
UniProt A1ZAS6: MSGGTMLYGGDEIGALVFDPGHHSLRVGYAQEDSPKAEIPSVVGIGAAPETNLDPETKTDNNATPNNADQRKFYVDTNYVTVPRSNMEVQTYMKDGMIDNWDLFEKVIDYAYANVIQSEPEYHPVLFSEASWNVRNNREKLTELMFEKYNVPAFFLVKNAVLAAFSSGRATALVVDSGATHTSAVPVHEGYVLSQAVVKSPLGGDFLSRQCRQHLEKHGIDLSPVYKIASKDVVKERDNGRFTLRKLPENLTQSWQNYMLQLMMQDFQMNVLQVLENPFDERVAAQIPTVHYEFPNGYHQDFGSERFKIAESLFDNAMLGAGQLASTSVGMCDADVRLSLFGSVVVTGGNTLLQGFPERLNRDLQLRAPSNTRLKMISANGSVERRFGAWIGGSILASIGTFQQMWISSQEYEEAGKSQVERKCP
UniProt Q24368: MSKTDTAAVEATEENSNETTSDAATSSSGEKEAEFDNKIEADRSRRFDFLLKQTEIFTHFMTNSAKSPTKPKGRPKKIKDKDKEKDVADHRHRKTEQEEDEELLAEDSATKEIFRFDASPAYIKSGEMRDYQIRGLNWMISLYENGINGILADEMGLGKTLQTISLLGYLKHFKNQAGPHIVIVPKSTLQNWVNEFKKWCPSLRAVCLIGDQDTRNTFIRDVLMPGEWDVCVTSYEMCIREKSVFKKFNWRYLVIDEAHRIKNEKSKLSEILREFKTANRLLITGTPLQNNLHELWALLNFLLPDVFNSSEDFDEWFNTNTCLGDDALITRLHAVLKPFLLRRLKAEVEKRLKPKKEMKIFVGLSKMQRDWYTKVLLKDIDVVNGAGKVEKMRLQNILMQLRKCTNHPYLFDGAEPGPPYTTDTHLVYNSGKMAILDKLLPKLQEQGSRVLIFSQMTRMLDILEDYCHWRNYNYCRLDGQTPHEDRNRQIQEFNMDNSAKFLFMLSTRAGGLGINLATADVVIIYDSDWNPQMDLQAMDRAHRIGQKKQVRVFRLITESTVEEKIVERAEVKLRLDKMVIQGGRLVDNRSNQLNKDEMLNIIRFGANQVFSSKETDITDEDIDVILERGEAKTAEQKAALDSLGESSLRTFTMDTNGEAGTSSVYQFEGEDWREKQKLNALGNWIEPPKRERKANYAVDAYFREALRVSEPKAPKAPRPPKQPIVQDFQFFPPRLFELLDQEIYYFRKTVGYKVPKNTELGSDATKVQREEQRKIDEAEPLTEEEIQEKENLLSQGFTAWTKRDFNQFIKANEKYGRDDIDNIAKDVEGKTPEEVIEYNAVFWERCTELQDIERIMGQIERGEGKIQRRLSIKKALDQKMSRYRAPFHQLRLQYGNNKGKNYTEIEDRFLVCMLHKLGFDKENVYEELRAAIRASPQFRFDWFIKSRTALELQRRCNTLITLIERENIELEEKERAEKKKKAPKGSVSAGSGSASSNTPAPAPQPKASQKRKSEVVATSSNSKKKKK

Experiments:
[1] = target: GAGA factor (GAF) (Drosophila melanogaster (endogenous in embryos)) (UniProt Q08605); test: co-IP; analytical IP from 100 ug nuclear extract with anti-GAF antibodies or agarose A (mock), with or without DNaseI; Western blotting
[2] = target: full-length GAF isoform PC 1-519 aa fused to the GAL4 DNA-binding domain (Drosophila); test: two-hybrid; yeast pJ69-4A; GAF or its fragments on the GAL4 DNA-binding domain (pGBT9), partners on the GAL4 activating domain (pGAD24); growth on -Trp -Leu -His with 1 or 5 mM 3-AT, or -Trp -Leu -His -Ade; scored +++, ++, +
[3] = target: GAF 1-131 aa (BTB domain) fused to the GAL4 DNA-binding domain (Drosophila); test: as above
[4] = target: GAGA factor (GAF) (Drosophila melanogaster (endogenous in embryos)) (UniProt Q08605); test: co-IP; analytical IP from 100 ug nuclear extract with anti-GAF antibodies or agarose A (mock), with or without DNaseI; Western blotting; remark: listed apart in the source
[5] = target: GAGA factor (GAF) (Drosophila melanogaster (endogenous in embryos)) (UniProt Q08605); test: native gel or EMSA; supershift of the LBC complex formed on the 32P-labelled GAGA4 DNA probe in 6-18 h embryonic nuclear extract (20 ug), antibodies added; 4% gel, 0.5 x TBE, 4 C

Molecule | binding [2] | further results
Bap55 (from UniProt A1ZAS6) | – | binding [1]: binds
Iswi (from UniProt Q24368 1-1027) | – | binding [1]: binds
Bab2 (CG9102) PA 194-313 aa fused to the GAL4 activating domain (domain or fragment, UniProt Q9W0K4 194-313) EGQQFCLRWNNYQSNLTNVFDELLQSESFVDVTLSCEGHSIKAHKMVLSACSPYFQALFYDNPCQHPIIIMRDVSWSDLKALVEFMYKGEINVCQDQINPLLKVAETLKIRGLAEVSAGR | binds | binding [3]: binds
Batman (Lolal, CG5738 PA) 1-127 aa fused to the GAL4 activating domain (protein, UniProt Q7KRI2 1-127) MMSSDQQFFLKWNDFQTNMVTSFRHLRDEKSFTDVTLACEGQTCKAHKMVLSACSPYFKALLEENPSKHPIIILKDVSYIHLQAILEFMYAGEVNVSQEQLPAFLKTADRLKVKGLAETPSSIKREG | binds | –
CG2199 PB 1-733 aa fused to the GAL4 activating domain (protein, UniProt Q8IRH5 1-733) MRNILLCENMTKVQKEVRCDHCGTSQGSKSVFSGQKVFLGRKITDVLETITHRSIPSSLPIKICFVCTSTFMSSAALIEKVRETVDRVQEQPAKKTKVAEIEEPSTQESDKKAVKVPKKNTTLRQRSKSIAAFPPSFVNGANTNTEIEIISASPKKLDKTPKKQISRLFEDNLNDSVKLTPAKEVSSTKKAFLNLFGNGGNDAIEVLTESEEEEDSDKGPITINTNNFQCPECEFHAKFPKPYKEHLQKEHGLQRPRIYPCTLCIKTFGVLKTLKNHLRDTHSRTFESEAKTKAKESKEKEAKSGAKNKIDAKAKETNAVSQRKKPKEKKSKEKKTEIKCNVETKVVDEIDDQVNNKKGTDSEDADQTQATKIASFKALNESLMKKRMLENVIDSEYTFAINGSSASTPRADSNNFQCEICDCELMTAKQMQEHMKTVHSIDKPKVFKCHVCEKSLATKQSLKTHMTLHADGAEAPNSSKRKILQDEDEDVDILGTTQIENTAEKVEGPKKSQQSPTKAAKFTNRKILQEEDEVVEIVDAFKTDNTAEDDEGPAEEKIIRSRNNIQHQVDGGMIAPRSPAKKTKKTSHVDLSVSTTNGNSPAKSEKRKKQDKSEDTLPSSDVDIVEEINYNVRPHKKARLESIGDSTADESTLSCDRCGKFVKSRQRLDSHMEKKHAAKLQCTLCKEVYQNQMDYVAHFSNCGSEGGLPCGVANCKKVFTEANFLSSHLRKRH | binds | binding [3]: binds
Adf1 (protein, UniProt P05552 1-262) MHTLTAAIEMDKLDANLEQQFDLNLIEAVKLNPVIYDRSHYNYKHFVRKAQTWKQIAETLGVPEQKCTKRWKSLRDKFAREMKLCQESRWRYFKQMQFLVDSIRQYRESLLGKCANGSQSANQVADPSQQQQAQQQTVVDIFAQPFNGSATTSAQALTHPHEITVTSDAQLATAVGKDQKPYFYEPPLKRERSEEEHSDNMLNTIKIFQNNVSQAVSAEDQSFGMVVTDMLNTLGVRQKAEAKVHIIKYLTDMQLLAQHNKY | – | binding [4]: binds
E(y)2/ENY2 (protein, UniProt Q9VYX1 1-101) MSTSGAVDQYTVLTGDRSKIKDLLCSRLTECGWRDEVRLMCRNILMEKGTNNSFTVEQLIAEVTPKARTLVPDAVKKELLMKIRTILTEIEEEPDEPEDES | – | binding [5]: binds
Lola (CG12052) PA 1-120 aa fused to the GAL4 activating domain (domain or fragment, UniProt P42283 1-120) MDDDQQFCLRWNNHQSTLISVFDTLLENETLVDCTLAAEGKFLKAHKVVLSACSPYFATLLQEQYDKHPIFILKDVKYQELRAMMDYMYRGEVNISQDQLAALLKAAESLQIKGLSDNRT | binds | binding [3]: binds
Su(Hw) (CG8573 PA) 1-941 aa fused to the GAL4 activating domain (protein, UniProt P08970 1-941) MSASKEGKEKKGKLLGVENISPPKDKRPATRMKLLNDVGAGEDSEASTTTTTSRTPSNKQEKRGSVAGSRIKILNEEILGTPKTEKRGATKSTAPAASTVKILNEKKTPSATVTAVETTKIKTSPSKRKKMEHYVLQAVKSENTKADTTVTVVTEEDDTIDFILADDEEVVPGRIENNNGQEIVVTEDDEDLGEDGDEDGEDSSGKGNSSQTKIKEIVEHVCGKCYKTFRRVQSLKKHLEFCRYDSGYHLRKADMLKNLEKIEKDAVVMEKKDICFCCSESYDTFHLGHINCPDCPKSFKTQTSYERHIFITHSEFSDFPCSICNANLRSEALLALHEEQHKSRGKPYACKICGKDFTRSYHLKRHQKYSSCSSNETDTMSCKVCDRVFYRLDNLRSHLKQHLGTQVVKKPEYMCHTCKNCFYSLSTLNIHIRTHTGEKPFDCDLCDKKFSALVALKKHRRYHTGEKPYSCTVCNQAFAVKEVLNRHMKRHTGERPHKCDECGKSFIQATQLRTHSKTHIRPFPCEQCDEKFKTEKQLERHVKTHSRTKRPVFSCAECKRNFRTPALLKEHMDEGKHSPKQQRSSMRSAVKIMERTDCAICDKNFDSSDTLRRHIRTVHECDPDDIFGVEPHPSKRAKKDIESEEVVPVALNTSAGSLISSQTDGNGVVVREFLVDEGDGAAQTITLENETYTILPLDGAIEGEQLTDEAGVKPEAKKEEAQVSPVVKKEQRKSLAASLAAAIADNLEESCSEDDFSGEILTEEDIKLKENVGKLIDMLVDPPILKKYGWPNAPEETVLCKVIENCGHDLTKGGENYAELDYGSRMREYCKLLFTVVIHNDSIKSLLNNFPIDDVIEYVLGDEDQDEGGLDKDNESHSGDEEAVSVTGETKTNEIREKPEKKEVSAKSEKKEIVGKAVDKDNSEEVVRENKKKPVGEQEKA | no binding | –
Pita (CG3941 PA) 1-681 aa fused to the GAL4 activating domain (protein, UniProt Q95RQ8 1-683) MAAKLEVREAMLTEKRVCRFCLTEQKLASIFEENPRVKTTANLPLQIMAITAIEVYAGDGMPGHICLECRLLFEHCYRFKQMCKRAETLLRQYPLTGNWPSPLEKPRAPMTMVASKKLLVVPAKTAEPSETPKKLLNTMAKSSSQVIIEDVQVLESAMVTPRTVAGSSPVPRRSHAYELKVDNNQELSMDDVQSMLEDMASELEKEFPDIPQKASPVKPKVLNKSSIRILNKGPAAPVEPRLATPKVKRDDSGNVAIVTEVLDSDLPLDDQDDPTKNAEKVATDVFPCPDCERSFPLQQLLEIHRLNHTRSRSFQCLLCEKSFFSKYDLAKHNFVHTGERPFKCAICSKAFTRKALLHRHERTHTDVPKFICVYCEKPFLSRQEMEKHAERHQKKRPFQCGVCTKSFAFKQGLERHETVHSTNLPFPCQHCERSFSTASKLARHLVAHAGKRAYPCKYCHKSYMLSHHLSRHLRTHTQTSDASFVCSECKVSYSNYNDLLDHALIHATASLKCPMCRKQIEDIDSVESHMDQHKQSERHACEFCDHIFLTQKCLQRHIEDDHVVEMEPYQNEFEDDGEGEGGVDEKEEHLDDFEDMDNVKQEEFVTEYLEDDALYEDHLDDSDESFTPPPPKQRKTNPPKDAQQSVRQTRSRDAQRITQKTGKNEGKPHHKLERNLKNRRSAK | no binding | –
Sry-delta (CG17958 PA) 1-433 aa fused to the GAL4 activating domain (protein, UniProt P07664 1-433) MDTCFFCGAVDLSDTGSSSSMRYETLSAKVPSSQKTVSLVLTHLANCIQTQLDLKPGARLCPRCFQELSDYDTIMVNLMTTQKRLTTQLKGALKSEFEVPESGEDILVEEVEIPQSDVETDADAEADALFVELVKDQEESDTEIKREFVDEEEEEDDDDDDEFICEDVDVGDSEALYGKSSDGEDRPTKKRVKQECTTCGKVYNSWYQLQKHISEEHSKQPNHICPICGVIRRDEEYLELHMNLHEGKTEKQCRYCPKSFSRPVNTLRHMRMHWDKKKYQCEKCGLRFSQDNLLYNHRLRHEAEENPIICSICNVSFKSRKTFNHHTLIHKENRPRHYCSVCPKSFTERYTLKMHMKTHEGDVVYGVREEAPADEQQVVEELHVDVDESEAAVTVIMSDNDENSGFCLICNTNFENKKELEHHLQFDHDVVLK | no binding | –
